SMILES strings stand for the structures. The list shows a part of the results. These are further read-outs of the screen, such as a control signal, another cell line or another target. No call is given for them. Most of these compounds were active or inconclusive in the main read-out, so they are no random draw. The note in brackets gives the kind of curve behind each potency; many fits are weak.

What is called AC50 is the midpoint of the concentration-response curve, whichever way the signal moves.

This assay can be described thus: qHTS Assay to Find Inhibitors of Chronic Active B-Cell Receptor Signaling. Conditions: ABC-DLBCL IkBa-CBG/CBR reporter, luminescence ratio (green luciferase fused to IkBa over red control in TMD8 lymphoma cells), 4 h. The gist of the method:
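Compounds up to 46 uM were incubated four hours with TMD8 cells whose green CBG68 luciferase is fused to IkappaBalpha; red CBR luminescence normalised the signal, and concentration-effect curves were fitted to fusion, red and ratio data.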
Background: qHTS replaces the single test concentration by a dilution series.

Where [1] appears, read: measured here: CBR red luminescence, cell number.
[2] abbreviates: measured here: IkBa-CBG green luminescence.

Take `Brc1ccc(C2=Nn3c(nnc3-c3cccnc3)SC2)s1`: the AC50 under setting [1] was 12.6 µM [falling, partial curve, poor fit].

Turning to `CCOCCCNC(=O)C(NC(=O)CNC(=O)c1ccccc1)c1ccc(OC)cc1` (stereo not drawn), under setting [1], the AC50 is 7.08 µM [rising, partial curve, poor fit].

Consider `CONc1nc(NC(C)(C)C)nc(OCC#N)n1`, for which the AC50 under setting [1] is 14.6 µM [rising, partial curve, poor fit].

As to `CCn1c(O)c(C=Nc2ccccc2)oc1=S`, the AC50 under setting [1] is 22.4 µM [falling, single point].

Consider `O=C(Nc1ccccc1)Nc1ccccc1C(=O)NCc1ccccc1`, for which the AC50 under setting [1] was 2.06 µM [falling, partial curve].

In the case of `CCOc1ccc(NC(=O)COC(=O)c2cc([N+](=O)[O-])ccc2N2CCOCC2)cc1`, the AC50 under setting [1] is 23.1 µM [rising, single point].

Take `COc1ccccc1OCc1nc2ccccc2[nH]1`: the AC50 under setting [1] is 11.6 µM [falling, partial curve].

Turning to `CCNc1nc2c(c(=O)n(C)c(=O)n2C)n1Cc1ccc(Cl)cc1`, the AC50 under setting [1] was 22.4 µM [falling, single point].

On to `O=C(c1ccco1)N(Cc1ccc([N+](=O)[O-])cc1)c1ccc(Br)cc1`, for which the AC50 under setting [1] is 15.8 µM [falling, single point].

Regarding `C/C(N)=C(/C#N)C(=O)CSc1nc2cc(Cl)ccc2c(=O)n1-c1ccc(C)cc1`, the half-maximal activity concentration (AC50) under setting [1] was 0.164 µM [falling, full curve, poor fit].

Consider `O=C(CN1C(=O)c2ccccc2C1=O)Nc1cccc2cccnc12`, for which the AC50 under setting [1] was 18.4 µM [rising, single point].

Turning to `Clc1ccc(OCCOCCOc2cccc3cccnc23)c(Br)c1`, the AC50 under setting [1] is 4.11 µM [rising, full curve, poor fit].

Regarding `CCOC(=O)c1c(CCl)nc2ccccc2c1C`, the AC50 under setting [1] was 28.2 µM [falling, single point].

For the compound `COc1cccc(C(=O)C2CCCN(Cc3c(C)n(C)n(-c4ccccc4)c3=O)C2)c1` (stereo not drawn), the AC50 under setting [1] is 5.62 µM [rising, single point].

Consider `Cc1ccc(-n2ncc(Br)c(Br)c2=O)cc1`, for which, under setting [1], the AC50 was 5.62 µM [falling, full curve].

In the case of `CCn1cc(CCC(=O)NC(C)c2ccccc2)c2ccccc21` (stereo not drawn), the AC50 under setting [1] was 6.31 µM [rising, single point].

Take `Cc1ccc(NC2c3ncccc3C(=O)N2C2CCCCC2)cc1C` (stereo not drawn): the AC50 under setting [1] was 20.6 µM [falling, single point].

With `Cc1ccc(N2C(=O)N(CC(=O)Nc3ccc(C)cc3[N+](=O)[O-])C(=O)C2C)cc1` (stereo not drawn), the AC50 under setting [1] was 18.4 µM [rising, single point].

For `O=C(Nc1ccccn1)C(=O)Nc1ccccn1`, the AC50 under setting [1] was 2.82 µM [falling, full curve].

Regarding `COCCn1nnnc1CN(CCc1ccc(OC)c(OC)c1)Cc1cc2ccc(C)cc2[nH]c1=O`, the AC50 under setting [1] is 6.31 µM [rising, single point].

Turning to `O=[N+]([O-])c1ccc(CSc2nnc(Cc3ccccc3)o2)cc1`, under setting [1], the AC50 is 6.31 µM [rising, single point].

As for `Cc1ccc(C(=O)C(C(=O)/C=C/c2ccccc2)=C2SCCCS2)cc1`, the AC50 under setting [1] was 13 µM [falling, partial curve].

Consider `CN1CCCN(C(c2ccccc2)c2ccc(Cl)cc2)CC1` (stereo not drawn), for which the AC50 under setting [1] was 1 µM [falling, full curve, poor fit].

For `CC1=Nc2ccccc2/C1=C/c1sc(=N)n(-c2nccs2)c1O`, the AC50 by setting is: under setting [1], 35.5 µM [rising, single point]; under setting [2], 35.5 µM [falling, single point].

`CC1(C)Cc2[nH]c(=S)c(C#N)cc2CO1`: the AC50 under setting [1] was 7.94 µM [falling, partial curve].

In the case of `C[C@@H]1C[C@H]2[C@@H]3CCC4=CC(=O)C=C[C@]4(C)[C@@]3(Cl)[C@@H](O)C[C@]2(C)[C@@]1(OC(=O)c1ccco1)C(=O)CCl`, under setting [1], the AC50 is 16.4 µM [falling, single point].

Turning to `CCN1CCN(c2ncc3c(n2)CC(c2cc(OC)c(OC)c(OC)c2)CC3=O)CC1` (stereo not drawn), the AC50 under setting [1] was 23.1 µM [rising, single point].

As to `O=C(N/N=C/c1oc(O)c2ccccc12)c1ccccc1O`, the AC50 under setting [1] is 2 µM [falling, full curve].

Take `O=C(CSc1nnc(NC(=O)c2c(F)cccc2F)s1)NCc1ccc(F)cc1`: under setting [1], the half-maximal activity concentration (AC50) is 0.92 µM [falling, full curve, poor fit].

With `CCCCCn1c(NC(=O)c2ccco2)c(S(=O)(=O)c2ccc(C)cc2)c2nc3ccccc3nc21`, the AC50 under setting [1] is 15.8 µM [falling, partial curve, poor fit].

Consider `O=C(NC1CCCCCC1)C1CC(=O)N(c2ccc(Cl)cc2)C1` (stereo not drawn), for which the AC50 under setting [1] is 14.1 µM [falling, single point].

With `C/C(=N/NC(=O)c1ccco1)c1ccc(Br)s1`, the AC50 under setting [1] was 12.6 µM [rising, partial curve, poor fit].

For `O=C1c2c(O)cc(O)cc2O[C@H](c2ccc(O)c(O)c2)[C@@H]1O`, the AC50 under setting [1] was 35.5 µM [falling, single point].

For the compound `c1ccc(COc2ccc(-c3csnn3)cc2)cc1`, the AC50 under setting [1] is 0.251 µM [rising, full curve, poor fit].

`CCOC(=O)c1nnn(-c2ccc([N+](=O)[O-])cc2)c1C`: the AC50 under setting [1] is 12.6 µM [rising, partial curve, poor fit].

`CCC(C(=O)N1CCN(c2ccccn2)CC1)n1nc(C)n2c(cc3occc32)c1=O` (stereo not drawn): the AC50 under setting [1] was 35.5 µM [falling, single point].

As to `CN=c1scc(C)n1/N=C/c1ccc(O)cc1`, under setting [1], the concentration at half-maximal activity (AC50) was 18.4 µM [falling, single point].

Turning to `CN(Cc1ccccc1)S(=O)(=O)c1ccc(Cl)c(C(=O)NCc2ccc3c(c2)OCO3)c1`, the AC50 under setting [1] was 16.4 µM [rising, partial curve].

With `Cc1ccc(C)c(NC(=S)Nc2cccc3cnccc23)c1`, the AC50 under setting [1] is 0.891 µM [rising, full curve, poor fit].

Take `O=c1c(Cc2c(F)cccc2Cl)c(O)ccn1C1CC1`: the AC50 under setting [1] is 0.708 µM [rising, full curve, poor fit].

As for `Cc1[nH]c2ccccc2c1/C=N/NC(=O)c1ccccc1`, the half-maximal activity concentration (AC50) under setting [1] is 12.6 µM [falling, partial curve].

For the compound `O=C(CN1C(=O)c2ccccc2C1=O)Nc1ccc(-c2nc3ccccc3o2)cc1`, under setting [1], the AC50 is 18.4 µM [falling, single point].

Turning to `COc1ccccc1NC(=O)Nc1nc2ccc(S(N)(=O)=O)cc2s1`, the AC50 under setting [1] was 1.26 µM [falling, full curve].

On to `O=C(N/N=C/c1cccc(O)c1)c1ccc2c(c1)OCCO2`, for which the AC50 under setting [1] is 11.2 µM [falling, partial curve].

As to `Cc1cccc(-n2c(SCC(N)=O)nc3c(c2=O)C2(CCCC2)Cc2ccccc2-3)c1`, the AC50 under setting [1] is 18.4 µM [falling, partial curve] and the AC50 under setting [2] was 20.6 µM [rising, partial curve, poor fit].

Turning to `Clc1c(CSc2nc3ccccc3o2)nc2sccn12`, the AC50 is, setting by setting: under setting [1], 1.03 µM [rising, full curve, poor fit]; under setting [2], 16.4 µM [falling, single point].

`O=[N+]([O-])c1ccc2nn(Cc3ccccc3)cc2c1`: under setting [1], the AC50 is 6.31 µM [falling, partial curve].

Take `CS(=O)(=O)N1CCC(C(=O)NCc2ccc(F)cc2Cl)CC1`: the AC50 under setting [1] is 6.51 µM [falling, single point].

As for `Cc1ccccc1NC(=O)N(C(C)C)C(C)C`, under setting [1], the AC50 is 0.411 µM [falling, partial curve, poor fit].

In the case of `CCc1ccc(Nc2n[n+](-c3ccccc3)c(-c3c(Cl)cccc3Cl)s2)cc1`, the AC50 under setting [1] is 22.4 µM [falling, single point].

On to `Cc1ccc(S(=O)(=O)N(Cc2ccccc2)Cc2ccco2)cc1`, for which the AC50 under setting [1] is 29.1 µM [rising, single point].

As for `O=C(NC12CC3CC(CC(C3)C1)C2)c1ccc(-c2cccc(Cl)c2)o1`, under setting [1], the AC50 is 29.1 µM [rising, single point].

Consider `CN(C)c1ccc(-n2cccc2/C=C2/SC(=Nc3ccc(F)cc3)NC2=O)cc1`, for which the AC50 under setting [1] is 0.355 µM [falling, full curve, poor fit].

With `O=C(O)Cc1sc(N/N=C\c2ccccc2)nc1-c1ccccc1`, the AC50 under setting [1] was 8.2 µM [falling, partial curve, poor fit].

With `Cc1[nH]nc2c1C(c1ccsc1)C(C#N)=C(N)O2` (stereo not drawn), the AC50 under setting [1] is 18.4 µM [falling, single point].

In the case of `COc1ccc(CCNS(=O)(=O)c2ccc3c(c2)CCCC3)cc1OC`, the AC50 under setting [1] was 29.1 µM [falling, single point].

Regarding `O=C(c1ccncc1)N1N=C(c2ccc(Br)cc2)CC1c1ccccc1O` (stereo not drawn), under setting [1], the concentration at half-maximal activity (AC50) is 8.91 µM [falling, partial curve].

For the compound `Cc1ccc(Cl)cc1NC(=O)COC(=O)CC1CC2CCC1C2` (stereo not drawn), the AC50 under setting [1] is 20.6 µM [falling, single point].

Consider `CC(=O)c1ccc(NC(=O)CN2C(=O)NC(C)(c3ccc4c(c3)OCCO4)C2=O)cc1` (stereo not drawn), for which the AC50 is, setting by setting: under setting [1], 13 µM [rising, partial curve]; under setting [2], 23.1 µM [falling, single point].

In the case of `CCSc1ncccc1-c1nc2ccccc2[nH]1`, under setting [1], the AC50 was 0.651 µM [falling, full curve].

For the compound `O=C(NCCCN1CCOCC1)C1CCN(S(=O)(=O)c2ccccc2)CC1`, under setting [1], the AC50 was 29.1 µM [rising, partial curve, poor fit].

In the case of `O=C(NCC1CCCO1)c1c(O)c2c([nH]c1=O)CCCC2` (stereo not drawn), the half-maximal activity concentration (AC50) under setting [1] is 20 µM [rising, single point].

On to `Cc1ccc2nc(N/N=C/c3ccccc3F)nc(-c3ccccc3)c2c1`, for which the AC50 under setting [1] was 4.61 µM [falling, full curve].

In the case of `CC(=O)Nc1ccc(S(=O)(=O)N(C)CC(=O)OC(C)C(=O)N(C)C2CCCCC2)cc1` (stereo not drawn), the half-maximal activity concentration (AC50) under setting [1] is 3.16 µM [rising, full curve].

The values above are taken from PubChem BioAssay AID493014 (National Center for Advancing Translational Sciences (NCATS), 2011).
